Test results: US20080096967A1, “Formulations for Injection of Catecholic Butanes, Including Ndga Compounds, Into Animals” (priority 2005, published 2008)
Further values from the same series stand in other lists.

Test: Solubility and room temperature stability of M4N in modified cyclodextrin / PEG formulations (visual inspection)
Assay type: physicochemical
Protocol: A 100 mL solution of 40% HP-β-CD for use as a solubilizing agent and/or excipient was made as follows: 65 mL of WFI were placed in a glass beaker containing a stir bar. The beaker was placed on a magnetic plate, and the stir bar was set to stir at medium speed. About forty (40) grams of HP-β-CD were added slowly to the stirring WFI, using a spatula to direct the HP-β-CD to the center of the beaker so as to prevent HP-β-CD crystals from sticking to the beaker wall. The HP-β-CD solution was stirred for about 24 hr or until the HP-β-CD was dissolved completely upon visual inspection. The resulting solution measured about 93 mL. About 7 mL of WFI was added to this resulting solution to obtain 100 mL, producing a final solution of about 40% HP-β-CD. The final solution was stirred for about 1 hr, stored at room temperature, and was protected from light. This method of making the modified cyclodextrin solution may be scaled up or down to obtain the desired volume or concentration. Other concentrations or other modified cyclodextrin solutions may be similarly made, for example, by substituting HP-β-CD with other modified cyclodextrins, adjusted for the appropriate concentrations in the process described above.
A 10 mL solution of M4N at a concentration of about 10 mg/mL in 40% HP-β-CD was made as follows. About 10 mL of the 40% HP-β-CD solution were added to a glass beaker containing a stir bar. The beaker was placed on a magnetic plate and the stir bar was set to stir at medium speed. About […] of M4N were slowly added to the 40% HP-β-CD in the center of the beaker with the aid of a spatula. The M4N/40% HP-β-CD mixture was stirred for 2 hr or until all M4N was uniformly suspended without any clumps being present. The M4N/40% HP-β-CD mixture was optionally heated at 80° C. for about 30 min. (or longer if a larger volume of solution was desired, for example, 1 hr at 80° C. for 100 mL of the M4N/HP-β-CD mixture), or longer as needed to ensure complete dissolution of M4N. […] The final M4N/40% HP-β-CD solution was stored at room temperature and was kept protected from light. This process may be scaled up or down to obtain the requisite volume or concentration of M4N. Formulations containing M4N in other cyclodextrin solutions may be similarly made, such as, for example, by substituting HP-β-CD in the process described above with other cyclodextrins.
A 100 mL solution of M4N at a concentration of about 25 mg/mL in PEG 300 was made as follows. About 100 mL of PEG 300 were added to a glass beaker containing a stir bar. The beaker was placed on a magnetic plate and the stir bar was set to stir at medium speed. About 2.5 g of M4N were slowly added to the PEG 300 in the center of the beaker with the aid of a spatula to prevent M4N from sticking to the beaker wall. The M4N/PEG 300 mixture was stirred for 24 hr or until all M4N had dissolved or was uniformly suspended without any clumps being present. The M4N/PEG 300 mixture was optionally heated at about 60° C. for about 30 min. (or longer if a larger volume of solution was desired, for example, 1 hr at 60° C. for 500 mL of the M4N/PEG 300 mixture), or longer as needed to ensure complete dissolution of M4N. […] If crystals formed, the M4N/PEG 300 solution could be heated again at 60° C. for about 1 hr, with stirring, on a hot magnetic plate until all M4N was dissolved back in solution. The final M4N/PEG 300 solution was stored at room temperature and was kept protected from light. This process may be scaled up or down to obtain the requisite volume or concentration of M4N. Formulations containing M4N in other PEGs may be similarly made, such as, for example, by substituting PEG 300 in the process described above with PEG 400 or PEG 400 monolaurate. […]

[1] = 5% HP-β-CD, 12.5% PEG 300 (v/v), M4N 3.13 mg/mL
[2] = 6.7% HP-β-CD, 16.7% PEG 300 (v/v), M4N 4.17 mg/mL
[3] = 10% HP-β-CD, 25% PEG 300 (v/v), M4N 6.25 mg/mL
[4] = 10% HP-β-CD, 77% PEG 300 (v/v), M4N 19.3 mg/mL
[5] = 12.5% HP-β-CD, 50% PEG 300 (v/v), M4N 12.5 mg/mL
[6] = 12.5% HP-β-CD, 50% PEG 400 (v/v), M4N 12.5 mg/mL
[7] = 13% HP-β-CD, 67% PEG 300 (v/v), M4N 16.7 mg/mL
[8] = 15% HP-β-CD, 50% PEG 300 (v/v), M4N 12.5 mg/mL
[9] = 15% HP-β-CD, 50% PEG 400 (v/v), M4N 12.5 mg/mL
[10] = 20% HP-β-CD, 50% PEG 300 (v/v), M4N 12.5 mg/mL
[11] = 20% HP-β-CD, 50% PEG 400 (v/v), M4N 12.5 mg/mL
[12] = 23% HP-β-CD, 43% PEG 400 (v/v), M4N 12.9 mg/mL
[13] = 23% HP-β-CD, 43 PEG 300 (v/v), M4N 12.9 mg/mL

COc1ccc(C[C@@H](C)[C@@H](C)Cc2ccc(OC)c(OC)c2)cc1OC [Formulation M4N, meso-1,4-bis(3,4-dimethoxyphenyl)-2,3-dimethylbutane]
Y at 60 °C: Dissolution After Heating at X ° C. (23% HP-β-CD, 43% PEG 400 (v/v), M4N 12.9 mg/mL, 60° C.)
Y: Dissolution After Cool Down [1] | Dissolution After Cool Down [2] | Dissolution After Cool Down [3] | Dissolution After Cool Down [5] | Dissolution After Cool Down [6] | Dissolution After Cool Down [8] | Dissolution After Cool Down [9] | Dissolution After Cool Down [10] | Dissolution After Cool Down [11] | Dissolution After Cool Down (20% HP-β-CD, M4N 1 mg/mL) | Dissolution After Cool Down [12] | Dissolution After Cool Down [13]
N at 90°: Dissolution After Heating at X ° C. (15% α-CD, M4N 1 mg/mL, 90°)
>7 days: Stability at Room Temperature [12]
Y at 60°: Dissolution After Heating at X ° C. (12.5% HP-β-CD, 50% PEG 400 (v/v), M4N 12.5 mg/mL, 60°) | Dissolution After Heating at X ° C. (15% HP-β-CD, 50% PEG 400 (v/v), M4N 12.5 mg/mL, 60°) | Dissolution After Heating at X ° C. (20% HP-β-CD, 50% PEG 400 (v/v), M4N 12.5 mg/mL, 60°)
<1 days: Stability at Room Temperature [6]
N: Dissolution After Rotation (1.50% β-CD, M4N 1 mg/mL) | Dissolution After Rotation (1.50% β-CD, M4N 10 mg/mL) | Dissolution After Rotation [1] | Dissolution After Rotation (5% γ-CD, M4N 1 mg/mL) | Dissolution After Rotation [2] | Dissolution After Rotation [3] | Dissolution After Cool Down [4] | Dissolution After Rotation [4] | Dissolution After Rotation [5] | Dissolution After Rotation [6] | Dissolution After Cool Down [7] | Dissolution After Rotation [7] | Dissolution After Rotation [8] | Dissolution After Rotation [9] | Dissolution After Rotation (15% α-CD, M4N 1 mg/mL) | Dissolution After Rotation (15% α-CD, M4N 10 mg/mL) | Dissolution After Rotation (15% α-CD, M4N 50 mg/mL) | Dissolution After Rotation (15% α-CD, M4N 100 mg/mL) | Dissolution After Rotation (20% HP-β-CD in saline, M4N 1 mg/mL) | Dissolution After Rotation (20% HP-β-CD in saline, M4N 10 mg/mL) | Dissolution After Rotation (20% HP-β-CD in saline, M4N 50 mg/mL) | Dissolution After Rotation [10] | Dissolution After Rotation [11] | Dissolution After Rotation (20% HP-β-CD, M4N 1 mg/mL) | Dissolution After Rotation (20% HP-β-CD, M4N 10 mg/mL) | Dissolution After Rotation [12] | Dissolution After Rotation [13]
<3 days: Stability at Room Temperature [9]
<7 days: Stability at Room Temperature [11]
